Assay [1] concerns the target T1, THOC5 (human (endogenous in iPSCs)) (UniProt Q13769).
T1 sequence: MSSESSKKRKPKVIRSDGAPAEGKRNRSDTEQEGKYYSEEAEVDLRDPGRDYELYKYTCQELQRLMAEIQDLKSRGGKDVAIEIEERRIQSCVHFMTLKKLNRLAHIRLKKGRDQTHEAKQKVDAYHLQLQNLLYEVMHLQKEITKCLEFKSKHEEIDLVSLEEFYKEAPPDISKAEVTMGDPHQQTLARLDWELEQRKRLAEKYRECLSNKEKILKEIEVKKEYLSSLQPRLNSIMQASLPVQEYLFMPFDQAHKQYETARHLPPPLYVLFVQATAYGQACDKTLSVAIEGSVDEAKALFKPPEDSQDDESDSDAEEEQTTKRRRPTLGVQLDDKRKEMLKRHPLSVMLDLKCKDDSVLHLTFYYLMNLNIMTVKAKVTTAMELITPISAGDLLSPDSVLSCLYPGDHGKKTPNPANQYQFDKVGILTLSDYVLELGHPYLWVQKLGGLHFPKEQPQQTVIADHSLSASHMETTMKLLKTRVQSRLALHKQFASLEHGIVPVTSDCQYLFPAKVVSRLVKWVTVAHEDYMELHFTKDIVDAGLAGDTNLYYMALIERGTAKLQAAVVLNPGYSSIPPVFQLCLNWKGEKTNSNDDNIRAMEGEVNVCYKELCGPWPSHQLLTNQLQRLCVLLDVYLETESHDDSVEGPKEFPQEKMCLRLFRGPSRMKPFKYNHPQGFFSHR
The experiment in a line: co-IP; anti-THOC5 on Dynabeads Protein G, incubated with iPSC lysate (35 ug of protein) overnight at 4 °C; blots of the precipitate; unaffected control, THOC6^E188K/+ and THOC6^E188K/E188K iPSCs.

Assay [2] has as its target T1, THOC5 (human (endogenous in iPSCs)). The experiment in a line: co-IP; as a1, lysate of affected THOC6^E188K/E188K iPSCs only (anti-THOC5 on Dynabeads Protein G, overnight at 4 °C).

Numbering of substitutions follows the chain as printed. Names and notes keep the numbering of the source. These are yes or no findings as the source states them, for the method shown. In cells and extracts the contact can be indirect. Some binding calls cover weakened binding; strength is not graded here.

B1: THOC6 (protein, UniProt Q86W42-1 1-341)
chain: MERAVPLAVPLGQTEVFQALQRLHMTIFSQSVSPCGKFLAAGNNYGQIAIFSLSSALSSEAKEESKKPVVTFQAHDGPVYSMVSTDRHLLSAGDGEVKAWLWAEMLKKGCKELWRRQPPYRTSLEVPEINALLLVPKENSLILAGGDCQLHTMDLETGTFTRVLRGHTDYIHCLALRERSPEVLSGGEDGAVRLWDLRTAKEVQTIEVYKHEECSRPHNGRWIGCLATDSDWMVCGGGPALTLWHLRSSTPTTIFPIRAPQKHVTFYQDLILSAGQGRCVNQWQLSGELKAQVPGSSPGLLSLSLNQQPAAPECKVLTAAGNSCRVDVFTNLGYRAFSLSF
For the molecule B1, in assay [1], the binding result is “binds”.

B2: THOC6 p.E188K (protein, UniProt Q86W42-1 1-341)
chain: B1 chain with E188K
B2: the binding entry in assay [2] is “no binding”.

B3: THOC1 (protein, UniProt Q96FV9 1-657)
chain: MSPTPPLFSLPEARTRFTKSTREALNNKNIKPLLSTFSQVPGSENEKKCTLDQAFRGILEEEIINHSSCENVLAIISLAIGGVTEGICTASTPFVLLGDVLDCLPLDQCDTIFTFVEKNVATWKSNTFYSAGKNYLLRMCNDLLRRLSKSQNTVFCGRIQLFLARLFPLSEKSGLNLQSQFNLENVTVFNTNEQESTLGQKHTEDREEGMDVEEGEMGDEEAPTTCSIPIDYNLYRKFWSLQDYFRNPVQCYEKISWKTFLKYSEEVLAVFKSYKLDDTQASRKKMEELKTGGEHVYFAKFLTSEKLMDLQLSDSNFRRHILLQYLILFQYLKGQVKFKSSNYVLTDEQSLWIEDTTKSVYQLLSENPPDGERFSKMVEHILNTEENWNSWKNEGCPSFVKERTSDTKPTRIIRKRTAPEDFLGKGPTKKILMGNEELTRLWNLCPDNMEACKSETREHMPTLEEFFEEAIEQADPENMVENEYKAVNNSNYGWRALRLLARRSPHFFQPTNQQFKSLPEYLENMVIKLAKELPPPSEEIKTGEDEDEEDNDALLKENESPDVRRDKPVTGEQIEVFANKLGEQWKILAPYLEMKDSEIRQIECDSEDMKMRAKQLLVAWQDQEGVHATPENLINALNKSGLSDLAESLTNDNETNS
In the case of B3, in assay [1], the binding entry is listed as “binds”.

The values are drawn from publication PMC10884030.
